From PMC5943355

Protein sequences, listed by entry. Tags and fused reporters are not part of them.
UniProt P63010: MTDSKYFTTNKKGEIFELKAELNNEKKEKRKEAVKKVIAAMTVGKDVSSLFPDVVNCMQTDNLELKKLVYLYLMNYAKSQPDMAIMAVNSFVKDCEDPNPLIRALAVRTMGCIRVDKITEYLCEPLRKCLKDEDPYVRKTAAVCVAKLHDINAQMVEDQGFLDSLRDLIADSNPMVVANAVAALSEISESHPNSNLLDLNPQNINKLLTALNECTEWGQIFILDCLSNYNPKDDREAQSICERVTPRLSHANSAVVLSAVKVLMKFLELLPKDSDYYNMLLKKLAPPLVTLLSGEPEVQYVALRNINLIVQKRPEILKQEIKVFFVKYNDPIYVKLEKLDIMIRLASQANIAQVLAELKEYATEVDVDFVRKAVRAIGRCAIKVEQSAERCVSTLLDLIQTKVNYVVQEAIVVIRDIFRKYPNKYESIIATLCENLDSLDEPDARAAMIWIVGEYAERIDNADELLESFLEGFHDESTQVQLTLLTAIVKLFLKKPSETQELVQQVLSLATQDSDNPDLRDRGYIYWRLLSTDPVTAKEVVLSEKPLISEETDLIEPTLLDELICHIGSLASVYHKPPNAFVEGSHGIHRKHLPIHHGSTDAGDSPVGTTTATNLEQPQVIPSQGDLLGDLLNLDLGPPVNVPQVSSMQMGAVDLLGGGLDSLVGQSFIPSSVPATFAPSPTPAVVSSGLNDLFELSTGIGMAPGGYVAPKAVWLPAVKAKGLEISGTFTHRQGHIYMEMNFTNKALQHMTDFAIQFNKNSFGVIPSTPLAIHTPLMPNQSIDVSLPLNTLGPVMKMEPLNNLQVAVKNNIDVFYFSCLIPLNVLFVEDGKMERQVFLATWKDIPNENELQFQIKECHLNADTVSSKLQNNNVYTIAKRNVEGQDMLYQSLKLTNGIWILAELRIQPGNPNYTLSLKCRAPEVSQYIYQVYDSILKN
UniProt Q96CW1: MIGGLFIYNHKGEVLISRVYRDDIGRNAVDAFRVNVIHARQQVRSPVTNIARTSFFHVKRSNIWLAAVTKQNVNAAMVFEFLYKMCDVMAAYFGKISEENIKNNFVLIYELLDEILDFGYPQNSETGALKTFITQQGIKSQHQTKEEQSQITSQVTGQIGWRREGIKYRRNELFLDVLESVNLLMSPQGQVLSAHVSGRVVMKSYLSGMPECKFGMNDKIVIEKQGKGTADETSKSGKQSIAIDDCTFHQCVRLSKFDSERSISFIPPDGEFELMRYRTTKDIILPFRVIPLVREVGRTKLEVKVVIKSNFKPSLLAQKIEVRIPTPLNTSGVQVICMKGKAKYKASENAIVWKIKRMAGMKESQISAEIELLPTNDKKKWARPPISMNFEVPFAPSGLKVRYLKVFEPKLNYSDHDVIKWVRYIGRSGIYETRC
UniProt P20339: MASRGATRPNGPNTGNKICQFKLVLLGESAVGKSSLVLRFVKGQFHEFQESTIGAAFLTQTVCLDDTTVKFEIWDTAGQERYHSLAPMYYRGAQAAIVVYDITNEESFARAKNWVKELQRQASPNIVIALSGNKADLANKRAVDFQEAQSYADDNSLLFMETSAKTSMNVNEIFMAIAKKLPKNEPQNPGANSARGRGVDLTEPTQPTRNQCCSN
UniProt P51148: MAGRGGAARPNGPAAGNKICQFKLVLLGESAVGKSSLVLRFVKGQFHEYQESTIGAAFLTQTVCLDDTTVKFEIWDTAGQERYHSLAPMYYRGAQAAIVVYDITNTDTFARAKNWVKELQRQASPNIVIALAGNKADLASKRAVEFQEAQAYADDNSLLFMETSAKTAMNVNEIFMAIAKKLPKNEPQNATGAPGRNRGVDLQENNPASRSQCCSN
UniProt P61006: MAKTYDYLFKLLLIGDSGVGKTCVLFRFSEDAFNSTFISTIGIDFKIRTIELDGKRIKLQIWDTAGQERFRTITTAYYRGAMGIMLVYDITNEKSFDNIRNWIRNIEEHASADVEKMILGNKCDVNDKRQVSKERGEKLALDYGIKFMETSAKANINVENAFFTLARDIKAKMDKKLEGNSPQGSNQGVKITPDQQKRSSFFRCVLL
UniProt Q13596: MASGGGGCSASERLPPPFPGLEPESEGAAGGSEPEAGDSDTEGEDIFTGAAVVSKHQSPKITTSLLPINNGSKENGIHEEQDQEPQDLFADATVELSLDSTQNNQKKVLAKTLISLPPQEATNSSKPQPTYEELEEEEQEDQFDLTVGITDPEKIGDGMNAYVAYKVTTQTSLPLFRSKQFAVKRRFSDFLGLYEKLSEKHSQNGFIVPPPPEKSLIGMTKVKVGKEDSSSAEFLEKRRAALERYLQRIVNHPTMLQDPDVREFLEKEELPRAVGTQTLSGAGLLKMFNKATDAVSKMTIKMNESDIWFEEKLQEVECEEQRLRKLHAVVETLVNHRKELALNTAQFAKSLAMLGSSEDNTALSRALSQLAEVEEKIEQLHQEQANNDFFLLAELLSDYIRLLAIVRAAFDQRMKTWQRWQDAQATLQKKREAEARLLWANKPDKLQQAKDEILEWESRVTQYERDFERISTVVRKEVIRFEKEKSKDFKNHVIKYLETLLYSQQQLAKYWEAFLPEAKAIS
UniProt Q86TM6: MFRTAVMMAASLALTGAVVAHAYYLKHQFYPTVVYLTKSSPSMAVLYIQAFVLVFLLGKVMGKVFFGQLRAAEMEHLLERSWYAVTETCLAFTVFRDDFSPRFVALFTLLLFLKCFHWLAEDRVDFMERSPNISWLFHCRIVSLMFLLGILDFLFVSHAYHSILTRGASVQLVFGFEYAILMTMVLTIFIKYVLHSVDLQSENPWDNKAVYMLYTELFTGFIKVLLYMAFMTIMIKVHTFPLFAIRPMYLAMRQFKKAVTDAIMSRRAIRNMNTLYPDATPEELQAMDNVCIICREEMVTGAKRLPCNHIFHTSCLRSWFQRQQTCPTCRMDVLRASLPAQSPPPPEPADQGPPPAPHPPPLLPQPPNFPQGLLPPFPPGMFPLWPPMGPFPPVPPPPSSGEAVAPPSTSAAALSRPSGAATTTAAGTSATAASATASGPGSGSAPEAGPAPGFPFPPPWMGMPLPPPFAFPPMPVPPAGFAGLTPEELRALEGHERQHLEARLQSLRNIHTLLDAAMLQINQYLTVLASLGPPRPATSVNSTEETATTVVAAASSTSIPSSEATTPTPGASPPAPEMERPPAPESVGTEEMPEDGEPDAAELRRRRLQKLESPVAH
UniProt Q14160: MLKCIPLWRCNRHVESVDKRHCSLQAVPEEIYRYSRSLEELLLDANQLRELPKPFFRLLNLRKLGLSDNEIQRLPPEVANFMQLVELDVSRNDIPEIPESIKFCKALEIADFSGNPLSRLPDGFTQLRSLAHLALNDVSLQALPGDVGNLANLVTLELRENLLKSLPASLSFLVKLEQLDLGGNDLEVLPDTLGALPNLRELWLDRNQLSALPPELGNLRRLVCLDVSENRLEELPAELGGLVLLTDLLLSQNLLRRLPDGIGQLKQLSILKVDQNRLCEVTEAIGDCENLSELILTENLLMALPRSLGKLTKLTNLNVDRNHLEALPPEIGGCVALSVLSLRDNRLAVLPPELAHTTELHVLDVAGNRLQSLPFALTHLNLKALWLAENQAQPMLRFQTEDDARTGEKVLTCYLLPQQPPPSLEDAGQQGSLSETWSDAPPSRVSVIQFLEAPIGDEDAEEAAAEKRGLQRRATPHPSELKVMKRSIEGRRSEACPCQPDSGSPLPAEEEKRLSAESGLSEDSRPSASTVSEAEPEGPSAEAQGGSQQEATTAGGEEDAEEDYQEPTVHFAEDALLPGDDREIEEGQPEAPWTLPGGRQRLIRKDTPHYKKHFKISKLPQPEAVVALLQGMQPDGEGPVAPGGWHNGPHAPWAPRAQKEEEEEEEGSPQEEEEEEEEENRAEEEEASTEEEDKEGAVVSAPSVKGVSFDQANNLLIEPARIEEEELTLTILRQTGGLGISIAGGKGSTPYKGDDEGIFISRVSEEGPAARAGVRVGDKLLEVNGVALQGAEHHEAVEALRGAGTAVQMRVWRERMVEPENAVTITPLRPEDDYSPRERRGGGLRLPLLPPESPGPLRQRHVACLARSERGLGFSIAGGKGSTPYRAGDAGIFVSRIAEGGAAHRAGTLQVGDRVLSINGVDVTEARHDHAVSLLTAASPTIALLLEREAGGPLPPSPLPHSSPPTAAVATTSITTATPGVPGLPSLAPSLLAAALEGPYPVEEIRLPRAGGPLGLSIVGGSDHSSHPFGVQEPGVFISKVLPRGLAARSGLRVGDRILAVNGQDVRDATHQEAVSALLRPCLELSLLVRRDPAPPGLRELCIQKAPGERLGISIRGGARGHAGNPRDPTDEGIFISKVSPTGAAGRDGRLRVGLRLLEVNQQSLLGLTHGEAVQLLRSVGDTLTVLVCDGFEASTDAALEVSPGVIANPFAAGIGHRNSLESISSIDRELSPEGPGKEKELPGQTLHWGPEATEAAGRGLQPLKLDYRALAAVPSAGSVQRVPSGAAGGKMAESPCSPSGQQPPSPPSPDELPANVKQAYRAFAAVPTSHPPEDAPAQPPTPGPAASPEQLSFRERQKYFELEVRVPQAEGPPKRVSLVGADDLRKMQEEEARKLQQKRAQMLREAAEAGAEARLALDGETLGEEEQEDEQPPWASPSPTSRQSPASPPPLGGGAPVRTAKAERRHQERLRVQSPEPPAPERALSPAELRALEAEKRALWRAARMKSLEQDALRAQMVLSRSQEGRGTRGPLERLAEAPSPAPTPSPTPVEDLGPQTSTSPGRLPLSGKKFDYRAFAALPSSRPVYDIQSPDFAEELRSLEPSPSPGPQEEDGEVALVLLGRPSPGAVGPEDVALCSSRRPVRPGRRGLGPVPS
UniProt P61088: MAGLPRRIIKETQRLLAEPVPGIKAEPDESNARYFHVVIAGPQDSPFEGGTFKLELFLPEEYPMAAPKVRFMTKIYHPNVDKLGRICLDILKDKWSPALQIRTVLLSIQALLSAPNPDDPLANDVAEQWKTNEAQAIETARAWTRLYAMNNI
UniProt P22314: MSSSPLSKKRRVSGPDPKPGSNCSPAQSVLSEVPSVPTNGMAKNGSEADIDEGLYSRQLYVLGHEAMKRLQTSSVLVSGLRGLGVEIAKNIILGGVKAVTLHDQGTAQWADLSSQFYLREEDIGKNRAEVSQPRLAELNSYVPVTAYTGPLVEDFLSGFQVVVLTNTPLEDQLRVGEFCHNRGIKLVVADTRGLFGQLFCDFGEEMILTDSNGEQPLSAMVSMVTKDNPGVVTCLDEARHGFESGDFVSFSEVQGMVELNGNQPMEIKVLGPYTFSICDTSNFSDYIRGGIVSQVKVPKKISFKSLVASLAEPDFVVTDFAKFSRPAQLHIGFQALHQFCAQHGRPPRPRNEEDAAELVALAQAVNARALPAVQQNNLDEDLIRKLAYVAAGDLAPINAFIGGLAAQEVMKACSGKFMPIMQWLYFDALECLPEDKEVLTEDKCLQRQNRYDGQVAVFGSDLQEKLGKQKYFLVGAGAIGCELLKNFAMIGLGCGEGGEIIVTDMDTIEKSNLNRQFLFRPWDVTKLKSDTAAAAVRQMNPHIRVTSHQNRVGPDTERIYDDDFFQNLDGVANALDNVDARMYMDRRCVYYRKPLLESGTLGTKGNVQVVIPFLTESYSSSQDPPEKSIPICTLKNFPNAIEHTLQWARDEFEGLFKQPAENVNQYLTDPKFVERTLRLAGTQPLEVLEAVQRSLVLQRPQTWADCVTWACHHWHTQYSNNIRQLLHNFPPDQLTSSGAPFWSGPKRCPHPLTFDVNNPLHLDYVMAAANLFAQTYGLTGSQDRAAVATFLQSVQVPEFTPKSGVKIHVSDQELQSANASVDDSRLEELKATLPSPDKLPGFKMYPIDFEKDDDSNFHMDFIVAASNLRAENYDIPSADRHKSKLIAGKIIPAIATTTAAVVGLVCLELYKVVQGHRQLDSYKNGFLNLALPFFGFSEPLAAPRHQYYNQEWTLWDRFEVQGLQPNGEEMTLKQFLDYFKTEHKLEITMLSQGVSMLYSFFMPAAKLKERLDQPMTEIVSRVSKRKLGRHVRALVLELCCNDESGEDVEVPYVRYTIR
UniProt Q4G0F5: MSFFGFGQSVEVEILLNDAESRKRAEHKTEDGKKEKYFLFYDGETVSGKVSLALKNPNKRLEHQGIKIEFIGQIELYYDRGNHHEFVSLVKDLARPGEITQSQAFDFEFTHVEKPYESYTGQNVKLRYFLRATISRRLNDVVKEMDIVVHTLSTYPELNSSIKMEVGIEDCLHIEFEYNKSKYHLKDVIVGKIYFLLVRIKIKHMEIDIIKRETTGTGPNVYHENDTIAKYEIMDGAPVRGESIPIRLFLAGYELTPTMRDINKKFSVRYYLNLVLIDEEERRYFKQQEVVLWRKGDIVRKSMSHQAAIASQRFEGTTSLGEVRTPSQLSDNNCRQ

B1: Ubiquitin activating enzyme 6 (E1) (enzyme, UniProt A0AVT1 1-1052)
chain: MEGSEPVAAHQGEEASCSSWGTGSTNKNLPIMSTASVEIDDALYSRQRYVLGDTAMQKMAKSHVFLSGMGGLGLEIAKNLVLAGIKAVTIHDTEKCQAWDLGTNFFLSEDDVVNKRNRAEAVLKHIAELNPYVHVTSSSVPFNETTDLSFLDKYQCVVLTEMKLPLQKKINDFCRSQCPPIKFISADVHGIWSRLFCDFGDEFEVLDTTGEEPKEIFISNITQANPGIVTCLENHPHKLETGQFLTFREINGMTGLNGSIQQITVISPFSFSIGDTTELEPYLHGGIAVQVKTPKTVFFESLERQLKHPKCLIVDFSNPEAPLEIHTAMLALDQFQEKYSRKPNVGCQQDSEELLKLATSISETLEEKPDVNADIVHWLSWTAQGFLSPLAAAVGGVASQEVLKAVTGKFSPLCQWLYLEAADIVESLGKPECEEFLPRGDRYDALRACIGDTLCQKLQNLNIFLVGCGAIGCEMLKNFALLGVGTSKEKGMITVTDPDLIEKSNLNRQFLFRPHHIQKPKSYTAADATLKINSQIKIDAHLNKVCPTTETIYNDEFYTKQDVIITALDNVEARRYVDSRCLANLRPLLDSGTMGTKGHTEVIVPHLTESYNSHRDPPEEEIPFCTLKSFPAAIEHTIQWARDKFESSFSHKPSLFNKFWQTYSSAEEVLQKIQSGHSLEGCFQVIKLLSRRPRNWSQCVELARLKFEKYFNHKALQLLHCFPLDIRLKDGSLFWQSPKRPPSPIKFDLNEPLHLSFLQNAAKLYATVYCIPFAEEDLSADALLNILSEVKIQEFKPSNKVVQTDETARKPDHVPISSEDERNAIFQLEKAILSNEATKSDLQMAVLSFEKDDDHNGHIDFITAASNLRAKMYSIEPADRFKTKRIAGKIIPAIATTTATVSGLVALEMIKVTGGYPFEAYKNCFLNLAIPIVVFTETTEVRKTKIRNGISFTIWDRWTVHGKEDFTLLDFINAVKEKYGIEPTMVVQGVKMLYVPVMPGHAKRLKLTMHKLVKPTTEKKYVDLTVSFAPDIDGDEDLPGPPVRYYFSHDTD
B2: Ras-related protein 5B (protein, UniProt P61020 1-215)
chain: MTSRSTARPNGQPQASKICQFKLVLLGESAVGKSSLVLRFVKGQFHEYQESTIGAAFLTQSVCLDDTTVKFEIWDTAGQERYHSLAPMYYRGAQAAIVVYDITNQETFARAKTWVKELQRQASPSIVIALAGNKADLANKRMVEYEEAQAYADDNSLLFMETSAKTAMNVNDLFLAIAKKLPKSEPQNLGGAAGRSRGVDLHEQSQQNKSQCCSN
B3: Lethal giant larvae 1 (protein, UniProt Q15334 1-1064)
chain: MMKFRFRRQGADPQREKLKQELFAFNKTVEHGFPNQPSALAFDPELRIMAIGTRSGAVKIYGAPGVEFTGLHRDAATVTQMHFLTGQGRLLSLLDDSSLHLWEIVHHNGCAHLEEALSFQLPSRPGFDGASAPLSLTRVTVVLLVAASDIAALGTEGSSVFFLDVTTLTLLEGQTLAPGEVLRSVPDDYRCGKALGPVESLQGHLRDPTKILIGYSRGLLVIWNQASQCVDHIFLGNQQLESLCWGRDSSTVVSSHSDGSYAVWSVDAGSFPTLQPTVATTPYGPFPCKAINKILWRNCESGGHFIIFSGGMPRASYGDRHCVSVLRAETLVTLDFTSRIIDFFTVHSTRPEDEFDDPQALAVLLEEELVVLDLQTPGWPAVPAPYLAPLHSSAITCSAHVASVPAKLWARIVSAGEQQSPQPVSSALSWPITGGRNLAQEPSQRGLLLTGHEDGTVRFWDASGVALRPLYKLSTAGLFQTDCEHADSLAQAAEDDWPPFRKVGCFDPYSDDPRLGVQKVALCKYTAQMVVAGTAGQVLVLELSDVPVEQAVSVAIIDLLQDREGFTWKGHERLSPRTGPLPWPAGFQPRVLVQCLPPAAVTAVTLHTEWSLVAFGTSHGFGLFDYQRKSPVLARCTLHPNDSLAMEGPLSRVKSLKKSLRQSFRRIRKSRVSGKKRAANASSKLQEANAQLAEQACPHDVEMTPVQRRIEPRSADDSLSGVVRCLYFADTFLRDGAHHGPTMWAGTNSGSVFAYALEVPAAAVGGEKRPEQAVEAVLGKEVQLMHRAPVVAIAVLDGRGRPLPEPYEASRDLAQAPDMQGGHAVLIASEEQFKVFTLPKVSAKTKFKLTAHEGCRVRKVALATFASVACEDYAETCLACLTNLGDVHVFSVPGLRPQVHYSCIRKEDISGIASCVFTRHGQGFYLISPSEFERFSLSARNITEPLCSLDINWPRDATQASYRIRESPKLSQANGTPSILLAPQSLDGSPDPAHSMGPDTPEPPEAALSPMSIDSATSADTTLDTTGDVTVEDVKDFLGSSEESEKNLRNLAEDEAHACAILIK
B4: Clathrin light chain A (protein, UniProt P09496 1-248)
chain: MAELDPFGAPAGAPGGPALGNGVAGAGEEDPAAAFLAQQESEIAGIENDEAFAILDGGAPGPQPHGEPPGGPDAVDGVMNGEYYQESNGPTDSYAAISQVDRLQSEPESIRKWREEQMERLEALDANSRKQEAEWKEKAIKELEEWYARQDEQLQKTKANNRVADEAFYKQPFADVIGYVTNINHPCYSLEQAAEEAFVNDIDESSPGTEWERVARLCDFNPKSSKQAKDVSRMRSVLISLKQAPLVH

Target: NBCn1 C-terminal-GST (GST-tagged C-terminal tail of rat NBCn1-D) (rat) (UniProt Q9R1N3)
Assay: affinity purification with mass spectrometry; NBCn1-C-GST bound to glutathione agarose beads, added to MCF-7 cell lysate (80 mM Tris-HCl pH 7.5, 200 mM NaCl, 1% Triton-X-100), 2 h at 4 °C; GST-only beads as control; LC-MS; an independent experiment in MCF-7 cells expressing p95HER2 yielded similar results; only the target purified

Molecule	binding
AP-2 subunit alpha-1 (from UniProt O95782 1-977)	binds
AP-2 subunit beta (from UniProt P63010 1-937)	binds
AP-2 subunit mu (from UniProt Q96CW1 1-435)	binds
Clathrin heavy chain 1 (from UniProt Q00610 1-1675)	binds
Cortactin (from UniProt Q14247 1-550)	binds
EEA1 (printed protein ID: Early endosome) (from UniProt Q15075 1-1411)	binds
HUWE1, Ubiquitin ligase (E3) (from UniProt Q7Z6Z7 1-4374) (enzyme)	binds
Ras-related protein 5A (from UniProt P20339 1-215)	binds
Ras-related protein 5C (from UniProt P51148 1-216)	binds
Ras-related protein 8A (from UniProt P61006 1-207)	binds
SNX1 (from UniProt Q13596 1-522)	binds
STUB1, Ubiquitin ligase (E3) (from UniProt Q9UNE7 1-303) (enzyme)	binds
SYVN1, Ubiquitin ligase (E3) (from UniProt Q86TM6 1-617) (enzyme)	binds
Scribble (from UniProt Q14160 1-1655)	binds
UBE2N, Ubiquitin conjugated enzyme (E2) (from UniProt P61088 1-152)	binds
UBR4, Ubiquitin ligase (E3) (from UniProt Q5T4S7 1-5183) (enzyme)	binds
Ubiquitin activating enzyme 1 (E1) (from UniProt P22314 1-1058)	binds
VPS26a (from UniProt O75436 1-327)	binds
VPS26b (from UniProt Q4G0F5 1-336)	binds
B1	binds
B2	binds
B3	binds
B4	binds

No constants are given. Whether binding was seen depends on the method and setting. Binding seen in cells or lysates may run through a third protein. A yes stands for co-enrichment or nearness to the bait. Other partners may have been found.
